# Measured values published in PubChem BioAssay AID1487 (National Center for Advancing Translational Sciences (NCATS), 2009).
# The list shows a part of the results. Further columns of the screen follow, without active or inactive calls. The list favours compounds with an active or inconclusive main result. Words in brackets tell the shape of the fitted curve; partial curves, single points and poor fits give uncertain potencies.
# Experiment: qHTS Assay for Modulators of Lamin A Splicing
# Conditions: HeLa LMNA splicing GFP/RFP minigene ratio, 48 h
# How it was run: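 S3 HeLa stable clones carrying a lamin A-EGFP splicing minigene plus DsRed2 were seeded at 600 cells/well in Opti-MEM with 2% FBS, pin-dosed and incubated 48 h at 37°C. Acumen cytometry (488 nm) gave the GFP/RFP total-intensity ratio.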
# [1] = measured here: GFP splicing reporter channel
# [2] = measured here: RFP viability control channel
SMILES,AC50 [1],AC50 [2]
CCCCCNC(=O)c1ccc2c(c1)nc(C)n2-c1cccc(C)c1,"4.47 µM [falling, partial curve, poor fit]",–
Cc1ccccc1NC(=O)c1ccc(F)c(S(=O)(=O)N(C)C2CCCCC2)c1,"2.51 µM [falling, full curve]","3.16 µM [falling, full curve]"
CCOC(=O)c1[nH]c(C)c(C(=O)NCCC2=CCCCC2)c1C,"11.2 µM [rising, single point]",–
Cc1nc(-c2ccc(C)c(S(=O)(=O)N3CCC(C(=O)Nc4ccc(Cl)cc4)CC3)c2)no1,"7.94 µM [falling, partial curve, poor fit]","8.91 µM [falling, partial curve, poor fit]"
COc1ccc(N(C)S(=O)(=O)c2cccc3cccnc23)c(OC)c1,"35.5 µM [falling, single point]","35.5 µM [falling, single point]"
Cc1ccc(NC(=S)NCCSc2ccc(Cl)cc2)cc1,–,"35.5 µM [falling, single point]"
Cn1cc(C(=O)c2ccc(F)cc2)cc1-c1nc2ccccc2n1C,"12.6 µM [rising, partial curve]","25.1 µM [rising, single point]"
COc1cc2[nH]c(=O)n(CCCCCC(=O)N3CCN(c4ccccc4)CC3)c(=O)c2cc1OC,"2.51 µM [rising, single point]","15.8 µM [rising, single point]"
O=C(Nc1nnc(C2CC2)s1)c1ccc(Cl)c(S(=O)(=O)N2CCc3ccccc3C2)c1,–,"2.51 µM [rising, full curve]"
Nc1ccc(Cc2nc3cc4ccccc4cc3[nH]2)cc1,"6.31 µM [falling, full curve]",–
CCCCCCCCNC(C)C(O)c1ccc(SC(C)C)cc1 (stereo not given),"35.5 µM [falling, single point]","35.5 µM [falling, single point]"
CN(C)CCCNS(=O)(=O)c1ccc(N2CCC(c3ccc(Cl)cc3)=N2)cc1,"35.5 µM [falling, single point]","35.5 µM [falling, single point]"
COc1ccc(CNS(=O)(=O)c2cnc(N)nc2)cc1,"0.0891 µM [rising, full curve, poor fit]","6.31 µM [rising, partial curve, poor fit]"
CC1(C)Cc2cccc(OCC(=O)N3CCN(S(=O)(=O)c4ccccc4)CC3)c2O1,"7.08 µM [rising, partial curve]","7.08 µM [rising, partial curve]"
CCn1c(=O)n(CC)c2cc(S(=O)(=O)N3CCc4ccccc43)ccc21,–,"35.5 µM [rising, single point]"
CCOc1ccccc1NC(=O)CN1c2ccccc2S(=O)(=O)c2ccccc21,"39.8 µM [falling, partial curve, poor fit]",–
Cc1ccc(CNC(=O)c2cc(S(=O)(=O)N3CCCCCC3)cn2C)cc1,"6.31 µM [rising, partial curve, poor fit]",–
COc1ccc(Cn2ccc3nc(C)c(C(=O)Nc4ccc(OC(F)(F)F)cc4)cc3c2=O)cc1,–,"3.98 µM [rising, single point]"
CCOc1ccc(Nc2nc(N)nc(CN3CCN(c4ccccc4F)CC3)n2)cc1,–,"35.5 µM [rising, single point]"
Cc1ccn2c(c1)nc(=S)n2C(=O)c1ccccc1,"35.5 µM [rising, single point]",–
Cc1cc(NC(=O)Cn2nnc3sc4c(c3c2=O)CCC(C(C)(C)C)C4)no1 (stereo not given),"1.26 µM [rising, full curve]","14.1 µM [rising, partial curve]"
C=CCN1C(c2ccc(OCC)cc2)=CS/C1=C(\C#N)c1nnc2n1CCCCC2,–,"31.6 µM [rising, single point]"
Cn1c(=O)n(Cc2ccc(F)cc2)c(=O)c2c1nc1n2CCCN1C1CCCCC1,"12.6 µM [rising, partial curve]","17.8 µM [rising, partial curve]"
COc1ccc(C(C)=O)cc1CN1C(=O)C(C)N(c2ccc(C)cc2)C1=O (stereo not given),"14.1 µM [rising, single point]",–
Cc1ncc(CO)c(/C=N/NC(=S)Nc2cccc(Cl)c2)c1O,–,"22.4 µM [falling, partial curve, poor fit]"
COC(=O)CN1C(=S)N(c2ccc(OC)cc2)C(=O)/C1=C/c1ccc(N2CCOCC2)cc1,–,"35.5 µM [rising, single point]"

SMILES,AC50 [1],AC50 [2]
O=C(/C=C/c1ccccc1Cl)N(c1ccccn1)C1CCCCC1,–,"35.5 µM [rising, single point]"
COc1cccc(CNC(=O)C2CCN(S(=O)(=O)N3CCC(C)CC3)CC2)c1,–,"0.112 µM [falling, full curve, poor fit]"
O=C(O)c1cc([N+](=O)[O-])ccc1NCCCc1ccccc1,–,"14.1 µM [rising, single point]"
NC(=O)CSc1ncnc2c1cnn2Cc1ccccc1,–,"5.01 µM [rising, full curve, poor fit]"
CCOC(=O)c1c(S(=O)(=O)N2CCC(C(=O)Nc3ccc(OCC)cc3)CC2)c(C)n(C)c1C,–,"0.112 µM [falling, full curve]"
CCN(Cc1ccncc1)C(=O)[C@@H](CO)c1ccccc1,"0.0794 µM [falling, full curve]","0.0794 µM [falling, full curve]"
CN(c1ccc(C(=O)N2CCCCC2)cc1)S(=O)(=O)c1ccccc1,"35.5 µM [rising, single point]","31.6 µM [rising, single point]"
O=C(Nc1cccc(Cl)c1N1CCCC1)c1ccc([N+](=O)[O-])o1,–,"7.94 µM [rising, partial curve]"
c1ccc(-c2ccc(-c3nc(-c4ccccn4)no3)cc2)cc1,–,"28.2 µM [rising, single point]"
Cc1ccc(CS/C(Nc2ccccc2C)=C(\C#N)C(N)=O)c(C)c1,"14.1 µM [rising, partial curve, poor fit]","20 µM [rising, partial curve, poor fit]"
CCNc1nc(SCCOc2ccc(C)cc2)nc(N(C)C)n1,"35.5 µM [rising, single point]","35.5 µM [rising, single point]"
Cc1cc(NC(=O)CCCN2C(=O)/C(=C\c3cccs3)SC2=S)no1,–,"5.62 µM [rising, partial curve]"
COC(=O)c1ccc(C2/C(=C(/O)c3ccc(OC(C)C)cc3)C(=O)C(=O)N2c2cc(C)on2)cc1 (stereo not given),"35.5 µM [falling, single point]","35.5 µM [falling, single point]"
O=S(=O)(c1cccc(F)c1)N1CCN(C(=S)NCc2ccccc2)CC1,–,"11.2 µM [rising, partial curve, poor fit]"
O=C(CCCN1C(=O)c2ccccc2C1=O)Nc1ccc2c(c1)OCCO2,"10 µM [falling, partial curve, poor fit]","0.708 µM [falling, full curve]"
CC(=O)Nc1nnc(SCc2cc(=O)c3cccc(Cl)c3[nH]2)s1,"0.562 µM [rising, partial curve, poor fit]","0.794 µM [rising, full curve, poor fit]"
COc1ccc(-c2nc(N=Nc3ccc(O)cc3)n[nH]2)cc1,–,"17.8 µM [rising, single point]"
COc1cccc2oc(-c3ccco3)cc(=O)c12,–,"17.8 µM [rising, partial curve, poor fit]"
CC1(C)S[C@@H]2[C@H](NC(=O)COc3ccccc3)C(=O)N2[C@H]1C(=O)O (tested in a mixture with another compound),"0.00355 µM [falling, full curve, poor fit]","0.00398 µM [falling, full curve, poor fit]"
CC(=O)N1c2ccc(S(=O)(=O)N3CCCCCC3)cc2CC1C(=O)NCc1ccccc1F (stereo not given),"10 µM [falling, partial curve]","10 µM [falling, partial curve, poor fit]"
CCC1(O)CC2CN(CCc3c([nH]c4ccccc34)[C@@](C(=O)OC)(c3cc4c(cc3OC)N(C=O)C3[C@]45CCN4CC=C[C@@](CC)([C@@H](OC(C)=O)[C@]3(O)C(=O)OC)[C@H]45)C2)C1 (stereo not given in full),"0.0251 µM [falling, full curve]","0.0708 µM [falling, full curve]"
CC(C)CC[n+]1ccn(C2=C([O-])c3ccccc3C(=O)/C2=N\S(=O)(=O)c2ccccc2)c1,"22.4 µM [falling, single point]","35.5 µM [falling, single point]"
CCOc1ccc(CCNC(=O)CN2C(=O)c3cccnc3Oc3ccc(Cl)cc32)cc1,–,"0.158 µM [falling, full curve, poor fit]"
O=C(OCn1ncc(Cl)c(Cl)c1=O)c1ccccc1Cl,"7.08 µM [falling, partial curve]","10 µM [falling, partial curve]"
COc1cccc(NC(=O)c2nn(C34CC5CC(CC(C5)C3)C4)cc2[N+](=O)[O-])c1,"22.4 µM [rising, single point]","25.1 µM [rising, single point]"
